Assay results reported in publication PMC9066768.
Results are given in words; binding and its absence hold for the method and conditions named. In cells and extracts the contact can be indirect. Some binding calls cover weakened binding; strength is not graded here. Where a sequence is shown, tags or fusion partners need not be part of it.

Target: HA-p53 (UniProt P04637)
Test: co-IP; 293T cells co-transfected with Flag-RND1 and HA-p53 for 48 h; lysed in IP buffer (50 mM Tris-Cl pH 8.0, 0.5 mM EDTA, 150 mM NaCl, 1% NP-40); IP with anti-Flag, anti-HA or IgG and Protein G Agarose overnight at 4 °C; blotted with anti-RND1 and anti-p53

binding: binds
B1: Flag-RND1 (Rho family GTPase 1) (protein, UniProt Q92730 1-232)
chain: MKERRAPQPVVARCKLVLVGDVQCGKTAMLQVLAKDCYPETYVPTVFENYTACLETEEQRVELSLWDTSGSPYYDNVRPLCYSDSDAVLLCFDISRPETVDSALKKWRTEILDYCPSTRVLLIGCKTDLRTDLSTLMELSHQKQAPISYEQGCAIAKQLGAEIYLEGSAFTSEKSIHSIFRTASMLCLNKPSPLPQKSPVRSLSKRLLHLPSRSELISSTFKKEKAKSCSIM
